In publication PMC9470164, “Membrane-mediated dimerization potentiates PIP5K lipid kinase activity” (eLife, 2022):
Results are given in words; binding and its absence hold for the method and conditions named. For some assays here: Where a sequence is shown, tags or fusion partners need not be part of it.

Sequences of proteins named here, by UniProt entry; tags and fusion partners are left off. A change or cut given only in a name is not applied to a line headed by its entry.
UniProt P70182: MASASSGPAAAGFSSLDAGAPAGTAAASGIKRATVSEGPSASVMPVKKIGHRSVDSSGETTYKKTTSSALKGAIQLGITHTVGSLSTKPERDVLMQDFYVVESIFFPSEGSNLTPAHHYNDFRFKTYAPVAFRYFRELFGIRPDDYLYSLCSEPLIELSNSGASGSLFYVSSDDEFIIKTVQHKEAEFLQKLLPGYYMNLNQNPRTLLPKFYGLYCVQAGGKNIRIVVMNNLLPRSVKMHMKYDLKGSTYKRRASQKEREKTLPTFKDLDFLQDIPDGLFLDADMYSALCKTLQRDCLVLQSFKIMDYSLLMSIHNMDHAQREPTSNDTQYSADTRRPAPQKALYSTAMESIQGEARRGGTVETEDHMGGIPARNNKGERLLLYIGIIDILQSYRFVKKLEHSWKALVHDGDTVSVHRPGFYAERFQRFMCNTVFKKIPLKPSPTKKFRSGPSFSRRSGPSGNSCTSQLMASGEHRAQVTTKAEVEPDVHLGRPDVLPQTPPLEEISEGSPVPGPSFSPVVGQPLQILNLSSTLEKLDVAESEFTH

Tests used:
[1] = molecular target: mNG-mPIP5KA (D92R), in cell lysate (mouse) (UniProt P70182); assay: single-molecule TIRF molecular brightness on supported lipid bilayers; 100 pM mNG-tagged kinase in diluted cell lysate; particles with intensity ≥9200 A.U. counted as dimers; membrane 96% DOPC, 4% PI(4,5)P2
[2] = molecular target: mNeonGreen-tagged yeast Mss4 (mNG-yMss4), in cell lysate (Saccharomyces cerevisiae (S288C)) (UniProt P38994); assay: single-molecule TIRF molecular brightness and photobleaching on supported lipid bilayers; mNG-tagged kinase in HEK293 cell lysate diluted ~10,000-fold to ~10 pM (legend: 1 pM mNG-PIP4KB, 5 pM mNG-PIP5K); low surface density ~0.03 molecules/µm^2; membrane 96% DOPC, 4% PI(4,5)P2; 23°C

binding [1] | binding [2] | Molecule
no binding (tested: 100 pM) |  | mNG-mPIP5KA (D92R), in cell lysate (from UniProt P70182 1-546) (enzyme)
 | no binding | mNeonGreen-tagged yeast Mss4 (mNG-yMss4), in cell lysate (enzyme, UniProt P38994 1-779) MSVLRSQPPSVVPLHLTTSTSRKTEQEPSLLHSAIIERHQDRSVPNSNSNPDSNHRIKKDRNNHTSYHSSSNSESNMESPRLSDGESSTPTSIEELNPTINNSRLVKRNYSISIDPLHDNSNNNTDDDHPNTITSPRPNSTSNKEMQKYSFPEGKESKKITTPSLNSNNCLDLDNSSLVHTDSYIQDLNDDHILLNKRVSRRSSRISAVTATSTTIKQRRNTQDSNLPNIPFHASKHSQILPMDDSDVIKLANGDTSMKPNSATKISHSMTSLPLHPLPQPSQKSKQYHMISKSTTSLPPENDHYYQHSRGTNHNHAANAAAVNNNTTTTTAATGLKRSESATAEIKKMRQSLLHKREMKRKRKTFLVDDDRVLIGNKVSEGHVNFIIAYNMLTGIRVAVSRCSGIMKPLTPADFRFTKKLAFDYHGNELTPSSQYAFKFKDYCPEVFRELRALFGLDPADYLVSLTSKYILSELNSPGKSGSFFYYSRDYKYIIKTIHHSEHIHLRKHIQEYYNHVRDNPNTLICQFYGLHRVKMPISFQNKIKHRKIYFLVMNNLFPPHLDIHITYDLKGSTWGRFTNLDKERLAKDRSYRPVMKDLNWLEEGQKIKFGPLKKKTFLTQLKKDVELLAKLNTMDYSLLIGIHDINKAKEDDLQLADTASIEEQPQTQGPIRTGTGTVVRHFFREFEGGIRASDQFNNDVDLIYYVGIIDFLTNYSVMKKLETFWRSLRHDTKLVSAIPPRDYANRFYEFIEDSVDPLPQKKTQSSYRDDPNQKNYKD
